Data on three molecules can be found in patent US20030138894A1.

Amino acid sequences for entries named in this document (tags omitted). Residues count along the entry.
UniProt Q9BYF1, residues 18-740: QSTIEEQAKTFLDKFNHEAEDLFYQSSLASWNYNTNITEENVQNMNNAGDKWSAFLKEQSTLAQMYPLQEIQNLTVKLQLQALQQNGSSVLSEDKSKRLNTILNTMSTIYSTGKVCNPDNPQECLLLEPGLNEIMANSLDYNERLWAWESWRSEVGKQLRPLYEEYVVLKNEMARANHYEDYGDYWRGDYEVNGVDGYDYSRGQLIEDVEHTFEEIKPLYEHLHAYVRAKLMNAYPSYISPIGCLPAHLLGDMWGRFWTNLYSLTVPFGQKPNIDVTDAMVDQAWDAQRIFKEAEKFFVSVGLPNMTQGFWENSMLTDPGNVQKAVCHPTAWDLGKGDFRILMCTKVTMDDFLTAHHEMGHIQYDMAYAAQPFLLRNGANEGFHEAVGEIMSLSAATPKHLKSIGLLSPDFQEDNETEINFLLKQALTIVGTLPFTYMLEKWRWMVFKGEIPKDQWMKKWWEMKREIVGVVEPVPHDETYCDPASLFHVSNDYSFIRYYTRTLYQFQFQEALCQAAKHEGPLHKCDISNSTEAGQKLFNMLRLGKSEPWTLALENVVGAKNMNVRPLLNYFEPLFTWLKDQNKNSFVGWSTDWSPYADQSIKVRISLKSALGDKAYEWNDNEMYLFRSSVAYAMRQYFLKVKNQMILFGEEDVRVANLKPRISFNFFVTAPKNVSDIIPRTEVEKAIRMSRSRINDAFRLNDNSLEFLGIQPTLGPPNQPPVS

Results are given in words; binding and its absence hold for the method and conditions named. Some results given as binding are weak or reduced against the parent protein; the word gives no strength.

The assay concerns the target FLAG-tagged ACE-2 target (human) (UniProt Q9BYF1). In words: phage ELISA on FLAG-ACE-2. On the technique in general: In an ELISA, binding on a coated surface is turned into a signal by an enzyme label.

For PQFCFEWEPCF [ACE-2 binding polypeptide …--], the binding result is reported as “binds”.

Turning to DDMCRWYPFASFYMCLF [ACE-2 binding polypeptide …-], the binding entry is reported as “binds”.

As for GFTCSPIRMFPWFRCDLG [ACE-2 binding polypeptide …], the binding result is recorded as “binds”.
